In all, about 53,000 sequences went through this assay and about 3,700 (7%) were called active.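 Rule for the calls: active = gene knockdowns whose robust z-score for IL-1 alpha signal is at least 2 or at most -2, so actives lie on both sides; inactive = the rest.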 This is one part of the list.
Assay: Components of the Cytosolic LPS Sensing Pathway: Gene Identification via Genome-wide siRNA Screen;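 note: robust z of the log signal after scaling to non-targeting control siRNA wells of the plate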
Details: RAW264.7 macrophages, IL-1a HTRF, actives lie on both sides, screened at 100 nM (by protocol), cells primed 5 h with Pam3CSK4 first
In short: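 IL-1a HTRF of supernatants after 24 hour LipidA transfection of Pam3CSK4-primed (5 hours) RAW264.7 cells, 48h post-siRNA transfection (100 nM). Scores: percent of plate negative-control median, then log-based robust z-score.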

Sequence	z-score
CCAAGGUUUGUCAUCUAAGTT against Limk2	inactive: -0.536
GCUCUGCUAGUCAACUGCATT against Nrip2	inactive: -0.0497
GCUUAGAGCGAUUCUAUGATT against Celf4	inactive: -1.46
GCUGAGAUAAGAAGUUUAATT against Macroh2a3	inactive: -0.0965
GCUGUUAGCCUAGUUUGUUTT against Ccdc177	inactive: -0.835
GGUGGUUUAACUGGAUAUUTT against Paip2b	inactive: -1.95
GGCCAAGGUUGCUAUUAAATT against Sik3	inactive: 0.168
GCAUCACUGAUCUGUGAAUTT against Cenpn	inactive: 0.627
GGGCAUGUUUGCCACCAGUTT against Gpam	inactive: 0.589
GGACCACUGACAUUUUUCATT against Tagln3	inactive: 0.618
GGUGUCUGCGUGAAGAUCATT against Cacng8	active: 2.81
CGAAUUUACAAGUUGUGCUTT against Pcnx4	inactive: -0.201
GGCCAUUCCAGCUCUGAAATT against Isl2	inactive: -0.298
GCUCUUAUCAGCAUGUAUATT against Birc6	inactive: 1.7
GGAAUCAAAGAUGGAGAGGTT against Galnt3	inactive: -0.409
GGACAACCGAUGAAUUUCGTT against Atp13a5	inactive: -0.971
GUGUUCAACUCCUGAGUAGTT against Olfr1275	inactive: -0.076
GGAGUUCUAUGUGUCACCATT against Dnajc5b	inactive: -1.62
GGAAAAGGAAUUCUCCAGATT against Atrip	inactive: 0.624
GGCAUUCAAAUCAAGAAGATT against 1700123O20Rik	inactive: 0.522
GGAACAUUUUUAGGACUGUTT against Vmn2r81	inactive: 0.637
CCAAGAAGAUCUGUACACGTT against Atxn7l2	inactive: 0.0534

Quoted at random: 5 entries already listed, in no set order.
Sequence	z-score
GGAAAAGGAAUUCUCCAGATT against Atrip	inactive: 0.624
GGAACAUUUUUAGGACUGUTT against Vmn2r81	inactive: 0.637
CCAAGAAGAUCUGUACACGTT against Atxn7l2	inactive: 0.0534
GGUGGUUUAACUGGAUAUUTT against Paip2b	inactive: -1.95
GGACAACCGAUGAAUUUCGTT against Atp13a5	inactive: -0.971

Later entries

Sequence	z-score
AAAUGAUAUCAAUAAAAUATT against Gm5154	inactive: -0.631
CCUAAGUGCUCCAUGGUACTT against Zfp28	inactive: -1.86
GGAAGAAGAUGAAGUUUUATT against Rnf222	inactive: 1.83
GGAGAAAUGCUUUUUGUUUTT against Scarb1	inactive: -0.151
CCAAAACUAGGAAGAAACATT against Olfr716	active: -2.3
GGGAAACGCAAAGCCUUUUTT against Olfr17	inactive: 1.77
CGAACCAAUGUCAACUUUCTT against Gpat3	inactive: -0.0547
GGCUCUCCUGAUCCAAGCUTT against Tprgl	inactive: -1.28
CCUCUAGAGAUCAAUGAGATT against Cluap1	inactive: -1.08
GGUGCUGAGAUCGAGUAUGTT against Mydgf	inactive: 0.849
GGAGCUAUGCAGAGGAGUATT against Duoxa1	inactive: 0.87
GCUGGUCUAUGUGGAAAGGTT against Brap	active: 2.32
GGAGGAUACAGUGGAGGGATT against Fbxl19	active: 2.81
GGAAGUAGGCAGCAUCAUCTT against Pcbp1	inactive: 1.13
GGAAAUCAGCUCAUAAAGUTT against Tcf19	inactive: 0.418
GGUACAUUAUCGGAUACAUTT against Zfp658	inactive: -1.1
CCCUCGAUCCUUUUCACCUTT against Gja4	inactive: 0.615
GCAGGUGGUACGCAGACUATT against Ulk1	inactive: -0.0204
GGACAUCUUUUACCAGGAGTT against Mrps23	inactive: -1.55
GGAUUCGGACUUCAUAAUCTT against Dpp10	inactive: 0.256
GGCUUUUGGUCUGAGAUGCTT against Snf8	active: -2.04
GGAUCUAGAUAAAACUCAATT against Epb41l3	inactive: 0.425

Sequence	z-score
AACCUUGCCGUUCUAGACATT against Olfr1423	inactive: -0.526
GGAGACUUACGAACUUCGUTT against Rpl22l1	inactive: 0.126
CGAUUGCUACGGAUAUUAUTT against Cdkal1	inactive: 0.0195
GGAAAAAUACUCCAUAUUCTT against Enam	inactive: 0.0353
GGUUGGUGACACAGUGCAATT against Tcl1b2	inactive: -0.567
CGGCAAUACCAUCAACAAGTT against Chrne	inactive: -0.385
GGCAUCUCCUCGAAUUUAUTT against Theg	inactive: -0.737
CCCGAAUGCAAUCCUUUGGTT against Phgdh	inactive: -0.748
GGAUUUUUACUGGUCAAACTT against Stap1	inactive: 0.0318
GCAGUUGACAUUUACUCUCTT against Nol10	active: 2.36
GGAGAAUGAAGAAGAUAAUTT against Taf5l	inactive: 0.222
GGAAAUUGUCAGGUCCUACTT against Rad50	active: 2.94
GGGCUUCAGUGAAGUUGUCTT against Nat8f3	inactive: -0.471
GCUCUUUUUACUAUGUCAATT against Col4a3	inactive: 0.141
GGAGAAAAUUUUGUCACUGTT against Olfr437	inactive: -0.353
GGAUUCUGAAGUGUAAAGATT against Icos	inactive: -0.764
GCAUAAAAUUGUGUUUCGUTT against Slc39a6	inactive: 0.208
GGAACGAGACCUGAAAAUUTT against Myh11	inactive: 0.63
GGGAUAACACUCCUGUUUUTT against F630111L10Rik	inactive: -1.06
GGCUUGGGUGCAACUGAAATT against Mrps26	inactive: -0.608
GCCAUCAACAGCAUUUACATT against Glt8d2	inactive: -0.455
GCGUAGGUUACGUUCAAGGTT against Ermard	active: 2.74

Sequence	z-score
GGGCUAGCAUCACAGUUUUTT against Tigd3	active: 2.3
GCCGAUCCAGAUUAUCAACTT against Vps26c	inactive: 1.95
GUGAGAACAAACAGAUAAUTT against Vmn1r4	inactive: -0.602
GCCUGAUCUCUUCCCAUCATT against Bpifa1	inactive: -1.62
GGUCAGAGUACCUCAAAGGTT against 4930550L24Rik	inactive: 1.77
GGCUCAGAUGUAUUUCAAATT against Magt1	inactive: -1.08
GGACACUUUACAGUGAUUGTT against Skint4	inactive: 1.1
CGUGUAUAAUGGCCAGCUUTT against Lamp1	inactive: -1.63
GGAGUUUGUCAUCAUGGGCTT against Gpr4	inactive: 1.01
GCAUGUGCUCCUUUUGUCGTT against Scgb2b27	inactive: 0.433
GGAGGAGGUUCUUCAGUACTT against Aplp2	inactive: 0.796
GGCCAAGGAAGAGAUCAUGTT against Ap4s1	inactive: -0.909
GGGCGAUUAUCUGUGGAAATT against Syt16	inactive: 1.4
GCACUGAAAGAAUUCGACUTT against Strn3	inactive: 0.115
GCCCAAUGAUUUCUCUUGUTT against Serpinb3d	inactive: 0.355
GGAACUAACACAUGAGUCUTT against D630004N19Rik	inactive: 1.27
CCAAUCCUGGAAUUGCCGATT against Gnb1l	inactive: -0.962
GGAUGUUGAGGAGUUUUUUTT against Trp53	inactive: 0.358
CCUAGAGAACUCUACCUGCTT against Rbpms2	inactive: -0.582
GGGACCGUGCUCUUUAACCTT against Nr0b1	inactive: 0.648
GGCGAAAAUUACUCGAAAGTT against Penk	inactive: 0.941
GGAUCGAAGCAGAACUGCATT against Hipk3	inactive: -0.936

Sequence	z-score
GGGUCAAAGAAGGAUACGUTT against Pym1	inactive: 0.109
GGAGGGUCUUGGAUAUGUGTT against Olfr1337	inactive: 0.765
GCUUCAGGACGACUUCUACTT against Fzr1	inactive: 1.46
GGAAACAGAUUUAAAGUGATT against Efcc1	inactive: 1.03
GGUUUUCACCAUAUGCAGCTT against Zfp353-ps	inactive: 0.267
CCCUGUACGUUGUCUAUAATT against Olfml3	inactive: 0.305
GGAUAAGAAGAUGAGGCAGTT against Mns1	inactive: -0.0977
GCCUAUCGAAAAGUCUUGGTT against Adcyap1	inactive: 0.875
GGUGCAAUCAAAUGGAAUUTT against Nrf1	active: 3.75
GGUUGUCAAUGAAAUGUGCTT against Cpxm2	inactive: 1.52
GGAUCACCUAACGUAAUGGTT against Phlda1	inactive: -1.31
GCGAGAGUGAAAACAUCCATT against Fam78b	inactive: 0.331
GCUCUCACCAUCAGAGAAATT against Trpc4	inactive: -0.12
GCCCAUUAUGGUUAAAGAATT against Ccnb3	inactive: -0.311
GCACCACUCUUUGUAAUAUTT against Olfr1046	inactive: 0.969
GCACUUUCACUGACCUAGATT against Gtf2e1	inactive: -0.638
GGGCAUGUUUAACGACAUUTT against Csf2ra	inactive: 1.49
GCGACAUAACUGCAUUCAATT against Kcnh1	active: 2.79
GGAUUUCAAAUGGAAACAATT against Vmn1r45	inactive: -1.15

Reference: PubChem BioAssay AID1508600 (Functional Genomics Laboratory (NCATS/FGL), 2020)
